Test results published in patent publication US20200148768A1.
Results are given in words; binding and its absence hold for the method and conditions named. Some results given as binding are weak or reduced against the parent protein; the word gives no strength.

Amino acid sequences for entries named in this document (tags omitted). A change or cut given only in a name is not applied to a line headed by its entry.
UniProt Q62556: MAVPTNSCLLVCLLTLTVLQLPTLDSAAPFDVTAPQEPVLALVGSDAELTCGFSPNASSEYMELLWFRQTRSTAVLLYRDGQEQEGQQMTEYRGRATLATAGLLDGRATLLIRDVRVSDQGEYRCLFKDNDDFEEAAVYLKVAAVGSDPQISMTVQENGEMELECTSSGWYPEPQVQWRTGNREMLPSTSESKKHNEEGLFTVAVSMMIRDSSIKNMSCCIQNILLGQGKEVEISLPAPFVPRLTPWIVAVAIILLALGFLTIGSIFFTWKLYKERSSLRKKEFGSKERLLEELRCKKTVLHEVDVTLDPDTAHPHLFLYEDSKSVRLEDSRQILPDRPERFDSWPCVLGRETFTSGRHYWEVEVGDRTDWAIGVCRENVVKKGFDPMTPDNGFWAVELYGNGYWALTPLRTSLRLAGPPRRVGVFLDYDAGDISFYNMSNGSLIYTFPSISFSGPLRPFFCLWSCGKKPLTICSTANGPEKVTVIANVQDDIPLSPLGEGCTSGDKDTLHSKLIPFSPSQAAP
UniProt Q13410: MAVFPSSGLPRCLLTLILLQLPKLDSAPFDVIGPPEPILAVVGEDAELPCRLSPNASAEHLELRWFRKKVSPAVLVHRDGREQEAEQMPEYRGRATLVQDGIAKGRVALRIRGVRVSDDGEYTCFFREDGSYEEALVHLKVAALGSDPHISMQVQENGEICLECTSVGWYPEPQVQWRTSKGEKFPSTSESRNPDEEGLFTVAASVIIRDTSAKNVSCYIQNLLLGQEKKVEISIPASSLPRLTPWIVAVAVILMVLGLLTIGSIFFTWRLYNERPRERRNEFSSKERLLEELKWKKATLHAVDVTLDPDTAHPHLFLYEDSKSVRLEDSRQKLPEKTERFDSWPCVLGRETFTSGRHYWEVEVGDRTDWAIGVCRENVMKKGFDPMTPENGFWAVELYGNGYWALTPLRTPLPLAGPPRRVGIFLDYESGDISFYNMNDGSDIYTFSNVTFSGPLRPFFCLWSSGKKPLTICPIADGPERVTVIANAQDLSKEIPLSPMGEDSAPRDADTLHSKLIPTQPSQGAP

Key:
[1] = molecular target: mouse BTN1A1-ECD-Fc (mouse; human) (UniProt Q62556); assay: SPR (Biacore X-100), antibody captured on chip
[2] = molecular target: mouse BTN1A1-ECD-Fc (mouse; human) (UniProt Q62556); assay: SPR (Biacore), mouse BTN1A1-Fc 2-64 nM over immobilized STC1011
[3] = molecular target: human BTN1A1 wild type, expressed on cells (human) (UniProt Q13410); assay: summary of FACS and western blot
[4] = molecular target: human BTN1A1 wild type, expressed on cells (human) (UniProt Q13410); assay: confocal immunofluorescence, HEK293T expressing BTN1A1 WT

Binder | binding [1] | binding [2] | binding [3] | binding [4]
STC1011 (antibody, V domains shown) VH: EVQLQQSGPELVKPGDSVKMSCKASGYTFTDYYMDWVKQSHGKSLEWIGYISPNNGGTKYNQKFKGKATLTVDKSSSTAYMELHSLTSEDSAVYYCAREPDLLYYFDYWGQGTTLTVSS VL: DIVMSQSPSSLAVSVGEKVIMSCKSSQSLLYFSNQKNYLAWYQQKPGQSPRLLIYWASTRESGVPDRFTGSGSGTDFTLTISSVKAEDLAVYYCQQYYSYPWTFGGGTKLEIK | binds | binds | – | –
STC810 (antibody, V domains shown) VH: EVQLQQSGPELVKPGASVKISCKASGYTFTHYNMDWVKQSHGKSLEWIGYIYPSNGGTGYNQKFKSRATLTVDKSSSTAYMELHSLTSEDSAVYYCARGAYHYGSSYAYWYFDVWGAGTTVTVSS VL: DIQMTQTTSSLSASLGDRVTISCSASQDISNYLNWYQQKPDETVKLLISYTSSLHSGVPSRFSGSGSGTDYSLTISNLAPEDIATYYCQQSSKLPFTFGSGTELEIKR | – | – | binds | binds
STC1029 (antibody, V domains shown) VH: EVQLQQSGPELVKPGASVKISCKASGYSFTGYFMNWVKQSHGKSLEWIGRINPYNGDTFYNQKFKDKATLTVDTSSSTAHMELRSLTSEESAVYYCARWTTVINFDYWGQGTTLTVSS VL: SIVMTQTPKFLLVSAGDRVTITCKASQSVSYDVVWYQQKPGQSPKLLMYYVSNRYTGVPDRFTGSGYGTDFTFTISTVQAEDLAVYFCQQDYSSPPTFGGGTKLEIK | binds | – | – | –
